PubChem BioAssay AID240 (DTP/NCI, 2004)
The list is a part of this screen's results and no random one: it is rich in T/C values a quarter to a half above the control, in often repeated tests (any T/C) and in doses without a T/C. Other doses and runs of a compound stand elsewhere. T/C is the treated group as % of the vehicle group. Some entries give survivors of the animals treated and no T/C: the source files T/C as zero there, which appears to mark a toxic dose or a test without result, not a measured value. Some doses without a T/C left all or most animals alive at the check, yet need not have been tolerated: the source hardly ever lists a survival T/C far under the control, and the zero likely stands for such cases as well. Survivors were counted at the toxicity check, usually on the fifth day, unless a day is given; later deaths do not show. Schedules are NCI's codes, taken here to give the interval after Q, in days (D) or hours (H), and the number of doses after X. Some entries were tested several times; the results are listed from low to high. Where survival is the endpoint, the PubChem record calls one and a half times the control and up active, and a quarter to a half above the control has no call in these data; cut-offs in other NCI protocols can differ. Some T/C values carry the count of animals alive at the toxicity check (mostly the fifth day); without a count, all were alive then.

System: Lymphoma 4 ip in BDF1 mice, median survival
Experiment: NCI In Vivo Anticancer Drug Screen. Data for tumor model Lymphoma 4 (intraperitoneal) in B6D2F1 (BDF1) mice
Conditions: T/C endpoint: median survival time, higher T/C = longer survival
Protocol: The antitumor activity of compounds was measured in mice bearing transplantable tumors. Survival or tumor size were measured and the results are expressed as the measurement made in the treated group (T) divided by the measurement made in the vehicle treated control group (C). The tumor model used in this assay is Lymphoma 4 (intraperitoneal) in B6D2F1 (BDF1) mice

[1] = dose: 20.0 mg/kg/injection, schedule: Q01DX010 (ip), vehicle: saline
[2] = dose: 5.0 mg/kg/injection, schedule: Q01DX010 (ip), vehicle: saline
[3] = dose: 10.0 mg/kg/injection, schedule: Q01DX010 (ip), vehicle: saline
[4] = dose: 2.5 mg/kg/injection, schedule: Q01DX010 (ip), vehicle: saline
[5] = dose: 100.0 mg/kg/injection, schedule: Q01DX010 (ip), vehicle: saline

Question: For `O=C(Nc1ccc(C2=NCCN2)cc1)c1cccc(C(=O)Nc2ccc(C3=NCCN3)cc2)c1`, which T/C (dose: 16.0 mg/kg/injection, schedule: Q01DX010 (ip), vehicle: saline) is on record?
Answer: The T/C was 139 % of control.

Question: What about the survivor count (dose: 64.0 mg/kg/injection, schedule: Q01DX010 (ip), vehicle: saline) of the same compound?
Answer: The survivor count was 0 of 6.

Question: `C[C@]12C=CC(=O)C=C1CC[C@@H]1[C@@H]2[C@@H](O)C[C@@]2(C)[C@H]1CC[C@]2(O)C(=O)CO` was tested. Which T/C (dose: 12.5 mg/kg/injection, schedule: Q01DX010 (sc), vehicle: steroid suspending solution) did it give?
Answer: Its T/C is 125 % of control.

Question: What about the T/C (dose: 25.0 mg/kg/injection, schedule: Q01DX010 (sc), vehicle: steroid suspending solution) of the same compound?
Answer: The T/C was 125 % of control.

Question: And the T/C (dose: 50.0 mg/kg/injection, schedule: Q01DX010 (sc), vehicle: steroid suspending solution)?
Answer: Its T/C is 125 % of control.

Question: What about the T/C (dose: 100.0 mg/kg/injection, schedule: Q01DX010 (sc), vehicle: steroid suspending solution) of the same compound?
Answer: Its T/C is 128 % of control.

Question: Which survivor count (dose: 32.0 mg/kg/injection, schedule: Q01DX010 (ip), vehicle: saline) does the source give for `CC(CCC(C)OS(C)(=O)=O)OS(C)(=O)=O` (configuration not stated) here?
Answer: The survivor count was 6 of 6.

Question: What does the source list for `CCCSc1ncnc2nc[nH]c12`?
Answer: survivor count (dose: 62.5 mg/kg/injection, schedule: Q01DX010 (ip), vehicle: saline): 5 of 6 and 6 of 6; survivor count (dose: 250.0 mg/kg/injection, schedule: Q01DX010 (ip), vehicle: saline): 4 of 6 and 5 of 6

Question: `C1CN1c1nc(N2CC2)nc(N2CC2)n1` was tested. Which T/C (dose: 0.5 mg/kg/injection, schedule: Q01DX010 (ip), vehicle: saline) did it give?
Answer: The T/C was 129 % of control.

Question: And the T/C (dose: 1.0 mg/kg/injection, schedule: Q01DX010 (ip), vehicle: saline)?
Answer: The T/C was 135 % of control.

Question: Which T/C [1] does the source give for `CCOC(=O)c1[nH]c2ccccc2c1CN(CCCl)CCCl` here?
Answer: Its T/C is 140 % of control.

Question: What about the survivor count (dose: 40.0 mg/kg/injection, schedule: Q01DX010 (ip), vehicle: saline) of the same compound?
Answer: Its survivor count is 6 of 6.

Question: And the survivor count (dose: 80.0 mg/kg/injection, schedule: Q01DX010 (ip), vehicle: saline)?
Answer: Its survivor count is 0 of 6.

Question: For `N#CCSc1ncnc2nc[nH]c12`, which survivor count (dose: 120.0 mg/kg/injection, schedule: Q01DX010 (ip), vehicle: saline) is on record?
Answer: The survivor count was 6 of 6.

Question: What does the source list for `Nc1nc(=S)c2[nH]cnc2[nH]1`?
Answer: survivor count (dose: 1.25 mg/kg/injection, schedule: Q01DX010 (ip), vehicle: other): 6 of 6; survivor count (dose: 2.5 mg/kg/injection, schedule: Q01DX010 (ip), vehicle: other): 6 of 6; survivor count (dose: 5.0 mg/kg/injection, schedule: Q01DX010 (ip), vehicle: other): 6 of 6; survivor count [2]: 6 of 6; survivor count (dose: 10.0 mg/kg/injection, schedule: Q01DX010 (ip), vehicle: other): 5 of 6 and 6 of 6; survivor count [3]: 5 of 6 and 6 of 6

Question: `NC(Cc1ccc(N(CCCl)CCCl)cc1)C(=O)O` (configuration not stated) was tested. Which T/C [4] did it give?
Answer: The T/C was 126 % of control.

Question: What about the T/C [2] of the same compound?
Answer: Its T/C is 135 % of control.

Question: What about the survivor count [3] of the same compound?
Answer: The survivor count was 6 of 6.

Question: What about the survivor count [1] of the same compound?
Answer: Its survivor count is 5 of 6.

Question: Which survivor count (dose: 0.4 mg/kg/injection, schedule: Q01DX010 (ip), vehicle: other) does the source give for `Nc1nc(N)c2nc(CNc3ccc(C(=O)NC(CCC(=O)O)C(=O)O)cc3)cnc2n1` (configuration not stated) here?
Answer: The survivor count was 5 of 6 and 6 of 6.

Question: Which results are given for `CC(=O)Nc1ccc2nc3ccc(NC(C)=O)cc3[n+](-c3ccccc3)c2c1`?
Answer: T/C [5]: 129 % of control; T/C (dose: 200.0 mg/kg/injection, schedule: Q01DX010 (ip), vehicle: saline): 129 % of control

Question: Which results are given for `Nc1nc2n[nH]nc2c(=O)[nH]1`?
Answer: T/C (dose: 25.0 mg/kg/injection, schedule: Q01DX010 (ip), vehicle: alkali diluted with saline): 132 % of control; T/C (dose: 50.0 mg/kg/injection, schedule: Q01DX010 (ip), vehicle: alkali diluted with saline): 125 % of control; T/C (dose: 100.0 mg/kg/injection, schedule: Q01DX010 (ip), vehicle: alkali diluted with saline): 142 and 143 % of control; T/C (dose: 200.0 mg/kg/injection, schedule: Q01DX010 (ip), vehicle: alkali diluted with saline): 132 % of control

Question: With `CCOC(N)=O` as the compound, how does the survivor count (dose: 500.0 mg/kg/injection, schedule: Q01DX010 (ip), vehicle: saline) read?
Answer: The survivor count was 6 of 6.

Question: What about the survivor count (dose: 1000.0 mg/kg/injection, schedule: Q01DX010 (ip), vehicle: saline) of the same compound?
Answer: Its survivor count is 4 of 6 and 6 of 6.

Question: How did the T/C [4] turn out when `Oc1cc(CN(CCCl)CCCl)c(O)cc1CN(CCCl)CCCl` was run?
Answer: The T/C was 130 [4 of 6 alive] and 140 % of control [5 of 6 alive].

Question: What about the survivor count [2] of the same compound?
Answer: The survivor count was 4 of 6 and 6 of 6.

Question: For `COc1cc(-c2ccc(Nc3ccccc3C(=O)O)c(OC)c2)ccc1Nc1ccccc1C(=O)O`, which T/C [5] is on record?
Answer: Its T/C is 126 % of control.
